Measurements taken from PMC8102003.
No constants are given. Whether binding was seen depends on the method and setting. In cells and extracts the contact can be indirect. Some results given as binding are weak or reduced against the parent protein; the word gives no strength.

Chains of the proteins cited; added tags and fusions are not shown. Lines headed by an entry give the natural chain unless they say otherwise; changes in a name come on top. A line that says so, or that is headed by a name, gives the form on record, which may keep a tag or linker. Residues count along the entry.
UniProt Q7Z2W4: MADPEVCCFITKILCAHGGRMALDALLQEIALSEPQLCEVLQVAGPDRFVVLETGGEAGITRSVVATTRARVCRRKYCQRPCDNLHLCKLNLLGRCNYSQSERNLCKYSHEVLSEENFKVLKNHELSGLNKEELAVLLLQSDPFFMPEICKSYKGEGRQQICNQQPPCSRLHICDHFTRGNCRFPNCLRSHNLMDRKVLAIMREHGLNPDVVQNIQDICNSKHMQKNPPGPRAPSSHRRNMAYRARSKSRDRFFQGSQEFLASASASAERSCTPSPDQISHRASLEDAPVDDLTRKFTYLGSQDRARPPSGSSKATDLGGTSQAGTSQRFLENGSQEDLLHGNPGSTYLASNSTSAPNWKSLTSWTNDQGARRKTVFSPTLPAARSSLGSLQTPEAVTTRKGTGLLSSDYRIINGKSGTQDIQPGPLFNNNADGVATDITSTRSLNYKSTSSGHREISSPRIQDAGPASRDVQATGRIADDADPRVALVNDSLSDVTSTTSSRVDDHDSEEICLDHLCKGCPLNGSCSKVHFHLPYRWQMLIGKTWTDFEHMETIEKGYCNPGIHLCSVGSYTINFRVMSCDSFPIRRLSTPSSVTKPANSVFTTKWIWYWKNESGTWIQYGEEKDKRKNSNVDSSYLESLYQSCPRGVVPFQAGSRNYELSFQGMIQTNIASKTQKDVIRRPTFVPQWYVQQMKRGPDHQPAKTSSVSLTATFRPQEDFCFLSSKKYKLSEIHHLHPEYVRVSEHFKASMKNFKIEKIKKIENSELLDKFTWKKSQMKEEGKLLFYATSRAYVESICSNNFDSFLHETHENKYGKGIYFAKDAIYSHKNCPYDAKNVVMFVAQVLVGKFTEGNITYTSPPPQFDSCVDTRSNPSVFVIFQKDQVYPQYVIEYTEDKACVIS
ZAP 254 (truncated human ZAP comprising the N-terminal 254 amino acids), HA-tagged: residues 1-254 of Q7Z2W4
UniProt Q14258: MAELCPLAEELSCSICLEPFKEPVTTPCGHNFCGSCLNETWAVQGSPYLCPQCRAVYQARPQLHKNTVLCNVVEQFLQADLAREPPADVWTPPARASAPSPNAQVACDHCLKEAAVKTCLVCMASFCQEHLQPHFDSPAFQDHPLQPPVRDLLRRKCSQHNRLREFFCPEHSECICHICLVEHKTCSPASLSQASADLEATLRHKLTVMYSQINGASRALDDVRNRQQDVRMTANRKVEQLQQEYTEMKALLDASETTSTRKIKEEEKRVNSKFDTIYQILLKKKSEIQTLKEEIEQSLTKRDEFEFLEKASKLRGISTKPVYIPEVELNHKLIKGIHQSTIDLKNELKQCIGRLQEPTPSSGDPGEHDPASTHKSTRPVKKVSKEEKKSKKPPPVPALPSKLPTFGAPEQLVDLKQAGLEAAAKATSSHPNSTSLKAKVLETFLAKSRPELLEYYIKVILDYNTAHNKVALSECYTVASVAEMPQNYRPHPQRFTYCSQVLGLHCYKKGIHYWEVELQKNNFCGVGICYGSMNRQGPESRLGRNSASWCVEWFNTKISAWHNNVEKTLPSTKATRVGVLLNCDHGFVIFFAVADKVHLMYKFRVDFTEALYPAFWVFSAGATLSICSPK

Experiments:
[1] = molecular target: ZAP 254 (truncated human ZAP comprising the N-terminal 254 amino acids), HA-tagged (human) (UniProt Q7Z2W4); assay: co-IP; HEK293T ZAP-/- cells transfected with HA-tagged ZAP constructs only; anti-HA antibody on protein G beads, 4°C 2 h; blot for endogenous TRIM25; lysates also treated with RNase A or RNase A/T1 before precipitation (Fig 5C, 5F)
[2] = molecular target: ZAP RNA^null (human ZAP-L R74A, R75A, K76A)-3xHA (human) (UniProt Q7Z2W4); assay: as above
[3] = molecular target: human ZAP-L-HA (full-length long isoform, wild type) (human) (UniProt Q7Z2W4); assay: as above
[4] = molecular target: ZAP RNA^null (human ZAP-L R74A, R75A, K76A)-3xHA (human) (UniProt Q7Z2W4); assay: co-IP; HEK293T ZAP-/- TRIM25-/- cells co-transfected with HA-tagged ZAP (WT, ΔZnF or RNA^null) and untagged TRIM25 or TRIM25 7KA; anti-HA precipitation; western blot for overexpressed ZAP and TRIM25 (Fig 5G)
[5] = molecular target: human ZAP-L-HA (full-length long isoform, wild type) (human) (UniProt Q7Z2W4); assay: as above
[6] = molecular target: human ZAP-L-FLAG (long isoform of the zinc finger antiviral protein) (human) (UniProt Q7Z2W4); assay: co-IP; HEK293T ZAP-/- TRIM25-/- cells co-transfected with ZAP-L-FLAG and TRIM25 (full length or truncated); anti-FLAG antibody on protein G beads, 4°C 2 h; washes in lysis buffer and IP wash buffer (300 mM KCl, 0.5% Igepal); western blot (Fig 5A)

Measured: binding

endogenous TRIM25 of HEK293T ZAP-/- cells (from UniProt Q14258 1-630)
binds: [1] | [2] | [3]

full-length untagged human TRIM25 (from UniProt Q14258 1-630)
binds: [4] | [5] | [6]
